PubChem BioAssay AID652243, Drosophila RNAi Screening Center | 2013
The deposit covers about 24,000 reagents; below is an unselected part of those that have a named target and a result. Over the whole deposit, 246 (1%) are marked active. 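Plates not normalised; calls are printed but the firefly/Renilla ratio behind them is not deposited; fold cut for lowering reported inconsistently.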 Raw values vary from plate to plate and are shown uncorrected. A plus sign joins genes that one reagent is predicted to hit. Not given: the amount of reagent.

- Assay: 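Fly genes required for human androgen receptor driven transcription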 (primary screen)
- System: Drosophila S2R+ cells
- Knock-down reagent: long dsRNA against Drosophila genes
- Time to read-out: 72 h (48 h, then 24 h hormone)
- Treatment: synthetic androgen R1881 at 10 nM for 24 h
- Measured: 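Per-well raw luminescence of the androgen-driven firefly reporter and of the Renilla control, two replicates each, without normalisation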
- Reading the numbers: firefly reporter light: higher = more light from androgen-responsive reporter; Renilla control light: higher = more constitutive control signal (cell number, transfection)
- Rule for the call: 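Across duplicate plates, a knock-down whose log firefly/Renilla ratio shifted a set fold down or up from the GFP/LacZ control mean was a hit; the downward cut appears as both 1.5 and 3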
- Meaning of the calls: active = hit: reporter lowered or raised; inactive = no hit

Target gene	amplicon	firefly reporter light, replicate 1	firefly reporter light, replicate 2	Renilla control light, replicate 1	Renilla control light, replicate 2	outcome
CG8195	DRSC07103	1.10e6	1.04e6	2.46e6	2.31e6	inactive
CG42376 + cin	DRSC18752	1.31e5	96592	9.44e5	5.93e5	inactive
CG42376 + cin	DRSC29294	5.37e5	5.03e5	8.74e5	1.16e6	inactive
ccb (central complex broad)	DRSC20501	2.66e5	1.51e5	4.86e5	3.88e5	inactive
CG33658	DRSC37833	1.65e6	1.20e6	3.12e6	2.77e6	inactive
Alh (Alhambra)	DRSC12447	29261	60907	1.32e5	2.29e5	inactive
Alh (Alhambra)	DRSC12487	1.04e5	1.27e5	2.57e6	2.32e6	inactive
Alh (Alhambra)	DRSC12488	1.17e5	1.14e5	2.19e6	1.81e6	inactive
Alh (Alhambra)	DRSC28926	1.67e5	2.42e5	6.41e5	9.62e5	inactive
Neu2 (Neuroectoderm-expressed 2)	DRSC11819	2.15e5	2.02e5	2.94e6	3.31e6	inactive
Neu2 (Neuroectoderm-expressed 2)	DRSC26795	3.31e5	2.70e5	5.97e5	5.19e5	inactive
POLDIP2 (Polymerase (DNA-directed), delta interacting protein 2)	DRSC12194	26771	60680	2.84e5	2.68e5	inactive
Acph-1 (Acid phosphatase 1)	DRSC14103	1.99e5	1.61e5	2.03e6	2.13e6	inactive
Acph-1 (Acid phosphatase 1)	DRSC36591					inactive
path (pathetic)	DRSC10361	2.05e5	1.58e5	2.39e6	2.02e6	inactive
Mf (Myofilin)	DRSC16120	2.34e5	1.56e5	3.45e6	2.43e6	inactive

The list goes on; the last 3 above are carried over.
Target gene	amplicon	firefly reporter light, replicate 1	firefly reporter light, replicate 2	Renilla control light, replicate 1	Renilla control light, replicate 2	outcome
Acph-1 (Acid phosphatase 1)	DRSC36591					inactive
path (pathetic)	DRSC10361	2.05e5	1.58e5	2.39e6	2.02e6	inactive
Mf (Myofilin)	DRSC16120	2.34e5	1.56e5	3.45e6	2.43e6	inactive
Cpr51A (Cuticular protein 51A)	DRSC05969	1.46e5	1.40e5	1.55e6	1.55e6	inactive
CG14275	DRSC02379	1.23e5	2.13e5	1.61e6	1.67e6	inactive
CG14275	DRSC27588	2.66e5	1.64e5	5.58e5	4.09e5	inactive
dop (drop out)	DRSC10655	95052	84940	8.96e5	5.67e5	inactive
dop (drop out)	DRSC29525	3.46e5	2.71e5	7.96e5	7.96e5	inactive
dop (drop out)	DRSC37067					inactive
CG30161	DRSC22141	9.15e5	8.97e5	4.91e5	5.84e5	inactive
Rbsn-5 (Rabenosyn-5)	DRSC03094	9.58e5	1.14e6	2.19e6	2.26e6	inactive
Rbsn-5 (Rabenosyn-5)	DRSC27756	3.05e5	1.83e5	4.28e5	4.67e5	inactive
